Assay results from patent publication US8822541B2, “Use of targeted nitroxide agents in mitigating or treating radiation injury” (University of Pittsburgh—Of the Commonwealth System of …, priority 2008, dated 2014).

System: Sprague Dawley rats
Experiment: Survival of rats subjected to volume-controlled hemorrhagic shock
Type: in vivo, rat
Method: Survival of rats subjected to volume-controlled hemorrhagic shock. Following surgical preparation and a 5-min stabilization period to obtain baseline readings, rats were subjected to hemorrhagic shock. Bleeding was carried out in 2 phases.
Initially, 21 ml/kg of blood was withdrawn over 20 min. Immediately thereafter, an additional 12.5 ml/kg of blood was withdrawn over 40 min. Thus, hemorrhage occurred over a total period of 60 min and the total blood loss was 33.5 ml/kg or approximately 55% of the total blood volume. Rats were randomly assigned to receive XJB-5-131 (2 μmol/kg) or its vehicle, a 33:67 (v/v) mixture of DMSO and normal saline. XJB-5-131 solution or vehicle alone was administered as a continuous infusion during the last 20 min of the hemorrhage period. The total volume of fluid infused was 2.8 ml/kg and it was administered intravenously using a syringe pump (KD100, KD Scientific, New Hope, Pa.). […] At the end of the 6 hour observation period, animals that were still alive were euthanized with an overdose of KCl.
Blood pressure was recorded continuously using a commercial strain-gauge transducer, amplifier, and monitor (S90603a, SpaceLabs, Redmond, Wash.). Blood samples (0.5 ml) were collected from the jugular vein at the beginning of hemorrhage (baseline), at the end of hemorrhage (shock) and at the end of resuscitation (resuscitation). Hemoglobin concentration [Hb], lactate and glucose concentration were determined using an auto-analyzer (Model ABL 725, Radiometer Copenhagen, Westlake, Ohio).
A total of sixteen rats were tested in this study. Rats were treated with 2.8 ml/kg of vehicle or the same volume of XJB-5-131 solution during the final 20 min of the bleeding protocol. The total dose of XJB-5-131 infused was 2 μmol/kg. Following profound hemorrhagic shock consistent with the protocol described above for the prior studies, thirteen survived for at least 60 min and received the full dose of either XJB-5-131 solution or the vehicle, a 33:67 (v/v) mixture of DMSO and normal saline. […] None of the between-group differences were statistically significant.

[1] = End of first phase of hemorrhage (before treatment)
[2] = End of second phase of hemorrhage, 2 μmol/kg iv

With CC(C)C[C@@H](/C=C/[C@H](Cc1ccccc1)C(=O)N1CCC[C@H]1C(=O)N[C@H](C(=O)N[C@@H](CCCNC(=O)OCc1ccccc1)C(=O)NC1CC(C)(C)N([O])C(C)(C)C1)C(C)C)NC(=O)OC(C)(C)C [XJB-5-131] the “Blood Hb concentration” value (Baseline (before treatment)) was 12.7 ± 0.3 g/dL, the Blood glucose concentration (Baseline (before treatment)) was 134 ± 4 mg/dL and the “Blood Hb concentration” value [1] was 10.7 ± 0.3 g/dL. The Blood glucose concentration [1] was 228 ± 24 mg/dL, the “Blood Hb concentration” value [2] was 9.4 ± 0.3 g/dL and the Blood glucose concentration [2] was 201 ± 38 mg/dL.
